PubChem BioAssay AID540276 (National Center for Advancing Translational Sciences (NCATS), 2011)
Where “and” joins values, the source holds several entries; their conditions need not be identical. Equal values may be shown once. The campaign covered roughly 300,000 compounds. About 5,400 (1.8%) were called active. Inconclusive results, whose numbers are uncertain, are shown with a selection of clear calls. Calls come from the whole dose curve; tested in HEK293 cells. A potency beside an inconclusive call is a rough fit, not a confirmed value.

Experiment: qHTS for inhibitors of binding or entry into cells for Marburg Virus
Details: Marburg virus pseudotyped entry inhibition, cell reporter; activity change, negative = inhibition: at 37.8 µM (top of the series) unless noted
% is set by controls: 0 for no effect and ±100 for the full control effect; potency is the fitted concentration of half-maximal effect.

With `Cc1ccccc1C(=O)OCCN1CCOCC1` as the molecule, how does the Potency read?
The Potency was inconclusive: 35.5 µM [activator, single point].

Which Potency does the source give for `OC(COCc1ccc(Cl)cc1)CN1CC=C(c2ccccc2)CC1` (configuration not stated) here?
Its Potency is inconclusive: 29.1 µM [inhibitor, single point] and inconclusive: 35.5 µM [inhibitor, single point].

For `CC(=O)c1ccc(S(=O)(=O)NCC(=O)N2CCN(C/C=C/c3ccccc3)CC2)cc1`, which Potency is on record?
Its Potency is inconclusive: 35.5 µM [inhibitor, single point].

With `O=C(NC1=NCCS1)c1ccc(OCC2CCCO2)cc1` (configuration not stated) as the molecule, how does the Potency read?
Its Potency is inconclusive: 7.08 µM [inhibitor, partial curve].

For `Fc1ccc(N2CCN(C(c3cccs3)c3nnnn3CCc3ccccc3)CC2)cc1` (configuration not stated), which Potency is on record?
Its Potency is active: 12.6 µM.

For `CCCc1nnc(NC(=O)Cc2coc3ccc(C)cc23)s1`, which Potency is on record?
Its Potency is inconclusive: 35.5 µM [activator, single point].

Which Potency does the source give for `COc1ccc(-c2[nH]nc3c2C2(C(=O)N(CC(=O)O)c4ccccc42)C(C#N)=C(N)O3)cc1OC` (configuration not stated) here?
Its Potency is inconclusive: 35.5 µM [activator, single point].

Which Potency does the source give for `COc1ccc(C2CC(=O)c3cnc(NC(=O)c4ccccc4OC)nc3C2)c(OC)c1` (configuration not stated) here?
The Potency was “inactive”.

Which Potency does the source give for `CN(c1cccc(NC(=O)c2ccc(C(C)(C)C)cc2)c1)S(C)(=O)=O` here?
Its Potency is inconclusive: 22.4 µM [inhibitor, single point].

Which Potency does the source give for `Cc1ccc(N2C[C@@H](C(=O)Nc3ccc(N(C)C)cc3)CC2=O)cc1C` here?
The Potency was inconclusive: 3.66 µM [inhibitor, full curve].

With `CC(OC(=O)c1cnccn1)C(=O)c1ccccc1` (configuration not stated) as the molecule, how does the Potency read?
Its Potency is inconclusive: 0.316 µM [inhibitor, partial curve, poor fit].

Which Potency does the source give for `CCOC(=O)C1=C(C)NC2=C(C(=O)CC(c3cccs3)C2)C1c1cccs1` (configuration not stated) here?
Its Potency is inconclusive: 35.5 µM [inhibitor, single point].

Which Potency does the source give for `CC(=O)Nc1ccccc1NC(=O)c1ccc(C)cc1C` here?
The Potency was inconclusive: 31.6 µM [activator, single point].

Which Potency does the source give for `CC(=O)NC(=S)Nc1ccc(N2CCOCC2)c(S(=O)(=O)Nc2cc(Cl)ccc2Cl)c1` here?
The Potency was inconclusive: 11.2 µM [inhibitor, partial curve, poor fit].

For `COC(=O)/C=c1/sc2nc3ccccc3n2c1=O`, which “activity change, negative = inhibition” value is on record?
The value was inactive: 17.6%.

With `CC(C)CNc1nc2c(c(=O)n(C)c(=O)n2C)n1Cc1cccc(Br)c1` as the molecule, how does the Potency read?
Its Potency is “inactive”.

For `COc1ccc(NS(=O)(=O)c2cccc(C(=O)NCC(c3ccc(OC)cc3)N3CCCC3)c2)cc1` (configuration not stated), which Potency is on record?
The Potency was inconclusive: 12.6 µM [inhibitor, partial curve].

Which Potency does the source give for `COc1ccccc1NC(=O)Cn1nc(-c2ccncc2)nc1SCC(=O)NC1CCCC1` here?
The Potency was inconclusive: 1.12 µM [inhibitor, partial curve, poor fit].

Which “activity change, negative = inhibition” value does the source give for `COc1ccccc1-c1cc2nc(C)cc(C)n2n1` here?
The value was inactive: 4.76% [at 46.1 µM].

With `CCCCN(CCCNC(=O)CN1C(=O)COc2ccccc21)c1ccccc1` as the molecule, how does the Potency read?
Its Potency is inconclusive: 0.517 µM [inhibitor, full curve, poor fit].

Which “activity change, negative = inhibition” value does the source give for `CC(=O)n1c(=O)c2ccccc2c(=O)n1-c1ccccc1` here?
Its value is inactive: -3.5%.

For `CCOC(=O)c1cnc(-c2ccccc2)nc1N1CCOCC1`, which “activity change, negative = inhibition” value is on record?
The value was inactive: -12.3% [at 46.1 µM].

With `CN(C(=O)C1CCC(=O)N(Cc2cccc(F)c2)C1)C1CCCCC1` (configuration not stated) as the molecule, how does the “activity change, negative = inhibition” value read?
Its value is inactive: 24.1% [at 46.1 µM].

Which Potency does the source give for `Cc1c(C(=O)Nc2ccc(F)cc2)oc2ccc(S(=O)(=O)N3CCC4(CC3)OCCO4)cc12` here?
Its Potency is active: 5.8 µM.

Which Potency does the source give for `Fc1ccc(/C=N/n2c(COc3ccccc3)n[nH]c2=S)cc1` here?
Its Potency is inconclusive: 35.5 µM [inhibitor, single point].

Which activity change, negative = inhibition does the source give for `CCOC(=O)C1(Cc2cccc(Cl)c2)CCCN(C(=O)c2ccc(C)nc2)C1` (configuration not stated) here?
The activity change, negative = inhibition was inconclusive: 12.8% [activator] [at 46.1 µM].

For `COc1ccc(-c2nnn(CC(=O)N3CCN(c4ccccc4OC)CC3)n2)cc1OC`, which Potency is on record?
The Potency was inconclusive: 5.62 µM [activator, single point].

Which Potency does the source give for `Cn1c(/N=C/c2cc(Cl)ccc2O)nc2ccccc21` here?
The Potency was inconclusive: 0.651 µM [inhibitor, single point].

Which Potency does the source give for `CCOc1cc2c(cc1OCC)C(c1ccccc1OC)OC(=O)C2` (configuration not stated) here?
The Potency was inconclusive: 22.4 µM [activator, single point].

With `O=C(CN1CCN(S(=O)(=O)c2ccc(Br)cc2)CC1)Nc1ccccc1C(=O)c1ccccc1` as the molecule, how does the Potency read?
The Potency was inconclusive: 20 µM [inhibitor, single point].

For `NC(=O)c1ccccc1NC(=O)c1ccc2ccccc2c1`, which Potency is on record?
Its Potency is inconclusive: 0.562 µM [activator, partial curve, poor fit].

With `O=C(Nc1nnc(C2CC2)s1)c1ccccn1` as the molecule, how does the Potency read?
Its Potency is inconclusive: 16.4 µM [inhibitor, single point].

With `O=P(CCCO)(Cc1ccccc1)Cc1ccccc1` as the molecule, how does the Potency read?
Its Potency is inconclusive: 6.31 µM [inhibitor, single point].

For `CCCCCCSC1=C(C#N)C(c2ccc(C)o2)CC(=O)N1` (configuration not stated), which “activity change, negative = inhibition” value is on record?
The value was inactive: -5.88%.

Which “activity change, negative = inhibition” value does the source give for `CCOc1ccc(NC(=O)Nc2cc(-c3ccccc3)sc2C(=O)OC)cc1` here?
The value was inactive: 6.4%.

For `O=C(Cn1c(=O)c2cccn2c2ccccc21)NCCc1ccc(Cl)cc1`, which Potency is on record?
The Potency was inconclusive: 5.62 µM [inhibitor, single point].

For `CCN1CCN(c2cc(C(C)(C)C)nc3c(-c4ccccc4)c(C)nn23)CC1`, which Potency is on record?
The Potency was inconclusive: 7.3 µM [inhibitor, single point].

For `O=C(O)CCc1ccc(-c2cccs2)n1Cc1ccco1`, which “activity change, negative = inhibition” value is on record?
Its value is inactive: -0.957%.

Which Potency does the source give for `CC(C)C1=NOC(C(=O)N2CCC(N3CCC(C(=O)N4CCOCC4)CC3)CC2)C1` (configuration not stated) here?
The Potency was inconclusive: 35.5 µM [activator, single point].

Which Potency does the source give for `O=[N+]([O-])c1ccc2nc(NN=Cc3ccc(O)cc3)sc2c1` here?
Its Potency is inconclusive: 35.5 µM [inhibitor, single point].

With `C/C(Cl)=C\Cn1c(Nc2ccccc2)nc2c1c(=O)n(C)c(=O)n2C` as the molecule, how does the Potency read?
Its Potency is inconclusive: 12.6 µM [inhibitor, partial curve, poor fit].

Which Potency does the source give for `Cc1cc(N2CCN(C)CC2)ccc1NC(=O)c1c2c(nc3ccccc13)CCN(Cc1ccccc1)C2` here?
Its Potency is inconclusive: 5.01 µM [activator, full curve, poor fit].

Which Potency does the source give for `CCCCc1nc2cc(C(=O)N(C)C3CCOCC3)ccc2o1` here?
Its Potency is inconclusive: 1 µM [activator, full curve, poor fit].

For `Cc1ccc(NC(=O)COC(=O)Cn2cnc3c2c(=O)n(C)c(=O)n3C)c(Cl)c1`, which Potency is on record?
Its Potency is inconclusive: 1.12 µM [inhibitor, partial curve, poor fit].

With `CC(=NNC(=S)N1CCN(c2ccccn2)CC1)c1ccccn1` as the molecule, how does the Potency read?
Its Potency is inconclusive: 3.55 µM [inhibitor, partial curve, poor fit].

With `Cc1ccc(-n2c(SCC(=O)OC(C)C)nnc2-c2cnccn2)cc1` as the molecule, how does the Potency read?
Its Potency is inconclusive: 23.1 µM [inhibitor, single point].

With `CCCCN1C(=O)C2Cc3c([nH]c4ccccc34)CN2C1=S` (configuration not stated) as the molecule, how does the Potency read?
The Potency was inconclusive: 35.5 µM [inhibitor, single point].

With `O=C(NCCc1ccc(Cl)cc1)c1ccc2c(c1)N(Cc1ccccc1F)C(=O)c1ccccc1S2(=O)=O` as the molecule, how does the Potency read?
Its Potency is inconclusive: 35.5 µM [inhibitor, single point].

Which Potency does the source give for `O=C(Nc1sc2c(c1CN1CCOCC1)CCC2)c1ccc(F)cc1` here?
Its Potency is inconclusive: 35.5 µM [activator, single point].

With `O=C(NCCc1ccccc1)C1CCC(=O)N1C1CCCC1` (configuration not stated) as the molecule, how does the “activity change, negative = inhibition” value read?
The value was inactive: 13.1%.

With `O=C(COC(=O)CCc1ccccc1)NC1CCS(=O)(=O)C1` (configuration not stated) as the molecule, how does the Potency read?
The Potency was inconclusive: 22.4 µM [activator, single point].

For `COc1cccc(-n2nc3c(=S)[nH]nc(C)c3c2C)c1`, which “activity change, negative = inhibition” value is on record?
The value was inactive: 5.53%.

Which “activity change, negative = inhibition” value does the source give for `Cc1ccc(NC(=O)CCC(=O)NNC(=O)c2cccs2)cc1C` here?
Its value is inactive: 19.7%.

With `COCCCNc1nc(N)c([N+](=O)[O-])c(Nc2ccccc2OC)n1` as the molecule, how does the Potency read?
Its Potency is inconclusive: 6.31 µM [inhibitor, single point].

With `CC(C)(C)OC(=O)N[C@@H](CC(=O)OCc1ccccc1)C(=O)O` as the molecule, how does the Potency read?
The Potency was inconclusive: 3.16 µM [activator, partial curve, poor fit].

For `COc1ccc(NC(=O)Nc2cccc(-c3cn4cccnc4n3)c2)cc1`, which Potency is on record?
Its Potency is inconclusive: 5.62 µM [activator, single point].

For `COc1ccc(OC)c(S(=O)(=O)N2CCC3(CC2)OCCN3S(=O)(=O)c2ccccc2)c1`, which “activity change, negative = inhibition” value is on record?
The value was inactive: 22.6%.

For `COc1ccc(CCNCC(O)COc2c(C)cccc2C)cc1OC` (configuration not stated), which Potency is on record?
The Potency was inconclusive: 12.6 µM [inhibitor, single point].

With `COc1ccccc1C(=O)NC(CCSC)C(=O)N1CCN(C/C=C/c2ccccc2)CC1` (configuration not stated) as the molecule, how does the Potency read?
The Potency was inconclusive: 3.16 µM [activator, single point].

Which Potency does the source give for `CC(=O)N1c2ccc(S(=O)(=O)N3CCCCC3)cc2CC1C(=O)Nc1ccc(F)cc1C` (configuration not stated) here?
The Potency was inconclusive: 4.47 µM [inhibitor, single point].

For `CC1(C)CC(NC(=O)COc2ccc(Cl)cc2Cl)CC(C)(C)N1`, which “activity change, negative = inhibition” value is on record?
The value was inactive: -1.24% [at 46.1 µM].

For `C=CCn1c(=N)n(CC(=O)O)c2ccccc21`, which Potency is on record?
The Potency was inconclusive: 0.562 µM [activator, single point].

For `O=c1cc(CN2CC(O)Cc3ccc4ccccc4c32)nc2sccn12` (configuration not stated), which “activity change, negative = inhibition” value is on record?
Its value is inactive: -12.6% [at 46.1 µM].

Which Potency does the source give for `CN(C)CCCNCC(=O)Nc1ccccc1N1CCOCC1` here?
The Potency was inconclusive: 0.562 µM [activator, partial curve, poor fit].

Which Potency does the source give for `CC(C)Oc1ccc(CNCCC2(C(C)C)CCOC(C)(C)C2)cc1` (configuration not stated) here?
The Potency was inconclusive: 23.1 µM [inhibitor, single point].

For `CCN(CC)c1ccc(/C=N/NC(=O)c2c(Cl)cnn2C)c(O)c1`, which Potency is on record?
The Potency was active: 1.12 µM.

Which Potency does the source give for `CC(C)(C)c1ccc(S(=O)(=O)Nc2ccc3c(c2)COC3=O)cc1` here?
The Potency was inconclusive: 15.8 µM [inhibitor, partial curve, poor fit].
